# Test results: paper PMC10112894
# The chains behind the UniProt entries cited, without tags or fusion partners. Where a name states a change or a piece, a line headed by the entry shows the natural chain unless it says otherwise.
# UniProt Q22235: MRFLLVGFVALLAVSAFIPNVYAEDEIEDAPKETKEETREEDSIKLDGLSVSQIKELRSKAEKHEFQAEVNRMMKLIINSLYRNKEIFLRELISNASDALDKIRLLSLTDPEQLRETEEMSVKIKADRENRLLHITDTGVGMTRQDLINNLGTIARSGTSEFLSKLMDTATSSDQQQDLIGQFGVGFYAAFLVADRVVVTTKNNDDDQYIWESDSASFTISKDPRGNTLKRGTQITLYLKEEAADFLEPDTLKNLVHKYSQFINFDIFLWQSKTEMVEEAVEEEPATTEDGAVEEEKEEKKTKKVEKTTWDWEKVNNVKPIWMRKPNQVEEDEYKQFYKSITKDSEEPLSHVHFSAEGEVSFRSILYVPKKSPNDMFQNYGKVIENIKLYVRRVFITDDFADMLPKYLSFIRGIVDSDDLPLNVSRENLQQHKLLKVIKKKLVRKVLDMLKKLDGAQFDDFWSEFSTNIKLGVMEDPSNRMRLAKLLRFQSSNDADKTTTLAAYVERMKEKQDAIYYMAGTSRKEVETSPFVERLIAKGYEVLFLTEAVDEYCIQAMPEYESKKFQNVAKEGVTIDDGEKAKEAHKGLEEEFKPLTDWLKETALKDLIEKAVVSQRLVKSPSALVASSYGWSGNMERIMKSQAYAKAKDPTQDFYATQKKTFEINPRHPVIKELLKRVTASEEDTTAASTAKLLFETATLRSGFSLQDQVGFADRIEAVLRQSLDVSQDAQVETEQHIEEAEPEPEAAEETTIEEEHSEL
# These are yes or no findings as the source states them, for the method shown. In cells and extracts the contact can be indirect. Binding can be weak; no strength is given. Where a sequence is shown, tags or fusion partners need not be part of it.
# Biological target: T1, ASNA-1::GFP (C. elegans) (UniProt P30632)
# T1 sequence: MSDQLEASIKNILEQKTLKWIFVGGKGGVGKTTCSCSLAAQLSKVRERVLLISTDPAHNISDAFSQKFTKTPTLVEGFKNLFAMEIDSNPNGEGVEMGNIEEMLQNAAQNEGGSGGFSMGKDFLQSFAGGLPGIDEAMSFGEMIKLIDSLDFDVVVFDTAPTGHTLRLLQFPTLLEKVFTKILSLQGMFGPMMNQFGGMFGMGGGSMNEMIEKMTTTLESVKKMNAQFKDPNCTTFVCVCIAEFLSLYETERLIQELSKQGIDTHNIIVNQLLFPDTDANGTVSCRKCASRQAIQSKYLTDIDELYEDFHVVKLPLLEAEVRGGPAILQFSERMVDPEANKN
# Assay: co-IP; anti-GFP magnetic beads (ChromoTek GFP-Trap) with 800-1000 µg lysate of adult worms co-expressing both tagged proteins, 1 h at 4°C; lysis in 10 mM Tris-HCl pH 7.4, 150 mM NaCl, 5 mM EDTA, 0.5% NP40; western blot. Also done with ablated ASI neurons (oyIs84), in daf-28(tm2308), kpc-1(gk8), ins-4(tm3620), unc-31(e928) and sod-2(gk257) mutants, and after 5 mM H2O2 for 30 min
row,binding,Substance
1,no binding,Ollas::DAF-28::MYC (DAF-28 pro-peptide) (C. elegans)
2,binds,3xFlag::ENPL-1^ΔCBD (from UniProt Q22235)
